Results as given in publication PMC10670248.
These are yes or no findings as the source states them, for the method shown. In cells and extracts the contact can be indirect. Here binding means that the protein was enriched with, or labelled near, the bait; the list need not be complete. For some of these results: A no says only that the protein was not detected with the bait. For some of these results: Tags and fused reporters may be left off the sequences shown.

Protein sequences, listed by entry. Tags and fused reporters are not part of them.
UniProt Q9NS67: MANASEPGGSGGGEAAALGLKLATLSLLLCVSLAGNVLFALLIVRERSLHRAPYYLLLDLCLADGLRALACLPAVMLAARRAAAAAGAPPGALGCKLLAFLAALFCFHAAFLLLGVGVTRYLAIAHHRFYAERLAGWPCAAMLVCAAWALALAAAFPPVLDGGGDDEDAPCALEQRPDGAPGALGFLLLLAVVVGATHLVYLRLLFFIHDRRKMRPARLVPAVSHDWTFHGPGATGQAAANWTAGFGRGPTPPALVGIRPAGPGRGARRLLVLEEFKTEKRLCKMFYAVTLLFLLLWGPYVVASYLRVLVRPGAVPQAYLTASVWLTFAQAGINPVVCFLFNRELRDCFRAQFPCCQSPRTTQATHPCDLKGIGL
UniProt Q9NS66: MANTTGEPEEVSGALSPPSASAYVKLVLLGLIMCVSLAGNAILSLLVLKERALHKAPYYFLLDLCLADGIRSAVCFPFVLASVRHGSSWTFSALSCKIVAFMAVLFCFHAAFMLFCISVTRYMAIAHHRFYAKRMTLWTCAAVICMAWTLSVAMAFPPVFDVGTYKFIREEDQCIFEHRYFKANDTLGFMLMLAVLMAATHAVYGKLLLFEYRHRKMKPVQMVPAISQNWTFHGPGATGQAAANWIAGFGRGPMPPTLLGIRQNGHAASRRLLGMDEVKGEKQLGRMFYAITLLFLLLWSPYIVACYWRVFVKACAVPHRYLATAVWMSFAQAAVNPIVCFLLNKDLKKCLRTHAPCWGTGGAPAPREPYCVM
UniProt P60893: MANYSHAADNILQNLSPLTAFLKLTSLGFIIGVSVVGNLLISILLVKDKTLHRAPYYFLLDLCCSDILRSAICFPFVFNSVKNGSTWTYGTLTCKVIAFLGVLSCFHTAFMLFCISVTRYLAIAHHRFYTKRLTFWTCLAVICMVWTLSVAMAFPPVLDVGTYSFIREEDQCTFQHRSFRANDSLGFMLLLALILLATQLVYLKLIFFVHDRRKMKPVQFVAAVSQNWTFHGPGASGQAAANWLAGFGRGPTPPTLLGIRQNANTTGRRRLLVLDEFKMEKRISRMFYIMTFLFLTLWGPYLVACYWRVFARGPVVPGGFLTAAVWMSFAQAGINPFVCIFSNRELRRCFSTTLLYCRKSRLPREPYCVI
UniProt O43491: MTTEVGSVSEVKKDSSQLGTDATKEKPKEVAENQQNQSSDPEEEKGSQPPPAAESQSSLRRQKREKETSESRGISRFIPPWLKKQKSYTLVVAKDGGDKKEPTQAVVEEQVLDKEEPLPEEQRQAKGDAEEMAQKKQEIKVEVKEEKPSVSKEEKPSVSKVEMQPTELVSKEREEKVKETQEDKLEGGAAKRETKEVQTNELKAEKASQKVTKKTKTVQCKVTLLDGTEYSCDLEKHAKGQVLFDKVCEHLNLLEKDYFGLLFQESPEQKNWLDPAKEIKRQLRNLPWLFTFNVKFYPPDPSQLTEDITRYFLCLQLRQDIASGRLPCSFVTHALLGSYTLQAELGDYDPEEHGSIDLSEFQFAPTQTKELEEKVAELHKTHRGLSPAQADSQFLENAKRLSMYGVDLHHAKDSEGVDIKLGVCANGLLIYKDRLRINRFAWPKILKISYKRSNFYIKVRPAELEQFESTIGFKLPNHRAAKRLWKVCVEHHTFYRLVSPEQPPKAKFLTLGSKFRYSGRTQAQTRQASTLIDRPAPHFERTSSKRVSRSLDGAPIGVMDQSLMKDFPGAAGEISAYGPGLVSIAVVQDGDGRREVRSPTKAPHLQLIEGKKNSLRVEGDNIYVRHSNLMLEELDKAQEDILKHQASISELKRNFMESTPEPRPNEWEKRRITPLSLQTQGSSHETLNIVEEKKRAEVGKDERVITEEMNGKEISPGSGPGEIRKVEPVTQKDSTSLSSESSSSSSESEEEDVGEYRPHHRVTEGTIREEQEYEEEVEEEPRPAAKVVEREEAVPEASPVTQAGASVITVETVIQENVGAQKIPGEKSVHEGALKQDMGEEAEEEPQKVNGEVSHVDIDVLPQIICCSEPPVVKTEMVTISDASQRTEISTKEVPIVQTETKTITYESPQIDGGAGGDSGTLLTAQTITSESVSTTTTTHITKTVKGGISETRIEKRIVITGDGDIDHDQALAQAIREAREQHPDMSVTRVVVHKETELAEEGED
UniProt Q9Y2J2: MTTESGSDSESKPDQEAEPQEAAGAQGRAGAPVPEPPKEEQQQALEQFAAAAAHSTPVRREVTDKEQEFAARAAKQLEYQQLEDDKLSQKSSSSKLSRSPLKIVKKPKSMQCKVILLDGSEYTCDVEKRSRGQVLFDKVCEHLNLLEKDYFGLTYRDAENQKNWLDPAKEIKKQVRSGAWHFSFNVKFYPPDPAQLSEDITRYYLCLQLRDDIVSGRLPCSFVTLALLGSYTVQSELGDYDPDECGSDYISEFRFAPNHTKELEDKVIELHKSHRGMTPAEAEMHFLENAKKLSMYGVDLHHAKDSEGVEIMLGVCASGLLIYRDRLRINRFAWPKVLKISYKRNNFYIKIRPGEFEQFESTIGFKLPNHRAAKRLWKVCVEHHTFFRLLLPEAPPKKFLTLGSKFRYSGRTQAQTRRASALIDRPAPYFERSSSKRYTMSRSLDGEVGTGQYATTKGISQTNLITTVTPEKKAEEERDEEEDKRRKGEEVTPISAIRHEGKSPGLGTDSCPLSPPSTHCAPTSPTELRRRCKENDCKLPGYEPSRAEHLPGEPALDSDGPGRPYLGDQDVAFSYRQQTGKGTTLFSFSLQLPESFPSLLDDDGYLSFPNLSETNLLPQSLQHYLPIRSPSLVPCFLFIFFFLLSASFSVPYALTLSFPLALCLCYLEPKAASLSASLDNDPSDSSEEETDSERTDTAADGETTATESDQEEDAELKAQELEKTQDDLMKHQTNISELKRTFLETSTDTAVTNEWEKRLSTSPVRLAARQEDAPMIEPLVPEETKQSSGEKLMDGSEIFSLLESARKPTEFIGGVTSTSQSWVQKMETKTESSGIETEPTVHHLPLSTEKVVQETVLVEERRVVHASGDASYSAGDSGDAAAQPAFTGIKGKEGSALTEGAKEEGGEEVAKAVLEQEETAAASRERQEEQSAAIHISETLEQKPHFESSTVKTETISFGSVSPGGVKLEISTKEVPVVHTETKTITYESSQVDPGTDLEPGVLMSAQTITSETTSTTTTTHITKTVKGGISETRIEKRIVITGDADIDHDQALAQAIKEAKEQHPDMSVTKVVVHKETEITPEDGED
UniProt P29992: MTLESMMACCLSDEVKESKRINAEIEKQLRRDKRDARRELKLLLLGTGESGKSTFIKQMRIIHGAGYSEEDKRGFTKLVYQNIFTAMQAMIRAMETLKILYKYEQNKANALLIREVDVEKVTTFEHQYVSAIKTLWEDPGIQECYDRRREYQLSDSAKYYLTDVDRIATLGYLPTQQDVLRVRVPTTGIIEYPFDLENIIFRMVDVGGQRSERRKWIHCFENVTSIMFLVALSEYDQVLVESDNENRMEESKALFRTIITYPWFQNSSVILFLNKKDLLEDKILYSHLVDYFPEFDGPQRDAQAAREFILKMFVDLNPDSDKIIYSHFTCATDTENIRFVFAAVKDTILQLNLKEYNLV
UniProt P04899: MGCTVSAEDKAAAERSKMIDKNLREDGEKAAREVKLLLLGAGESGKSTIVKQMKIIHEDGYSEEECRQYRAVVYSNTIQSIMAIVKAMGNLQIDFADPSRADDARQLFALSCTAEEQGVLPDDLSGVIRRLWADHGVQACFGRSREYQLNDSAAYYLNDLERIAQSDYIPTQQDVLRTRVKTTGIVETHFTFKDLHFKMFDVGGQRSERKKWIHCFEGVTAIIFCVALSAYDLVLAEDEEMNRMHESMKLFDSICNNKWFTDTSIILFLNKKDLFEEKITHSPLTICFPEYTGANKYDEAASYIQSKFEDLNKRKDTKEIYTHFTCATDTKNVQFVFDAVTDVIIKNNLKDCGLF
UniProt P63092: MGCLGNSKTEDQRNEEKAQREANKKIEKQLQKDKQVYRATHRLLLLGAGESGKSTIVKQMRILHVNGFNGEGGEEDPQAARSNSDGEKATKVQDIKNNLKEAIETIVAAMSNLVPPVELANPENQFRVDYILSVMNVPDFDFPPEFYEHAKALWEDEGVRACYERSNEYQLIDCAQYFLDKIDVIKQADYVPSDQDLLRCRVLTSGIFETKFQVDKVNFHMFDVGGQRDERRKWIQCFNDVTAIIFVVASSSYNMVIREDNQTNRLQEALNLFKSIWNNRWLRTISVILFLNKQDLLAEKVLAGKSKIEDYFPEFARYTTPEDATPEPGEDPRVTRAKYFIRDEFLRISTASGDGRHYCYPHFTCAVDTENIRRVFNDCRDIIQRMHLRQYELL

Columns and labels:
Assay in all cases: proximity labelling; BioID2 fused to the C-terminus of the receptor, stable HEK293 clones, 50 µM biotin (24 h in the methods, 16 h in the results and legend); lysis in 8 M urea, streptavidin Sepharose pull-down, LC-MS/MS; enrichment against BioID alone (fold change ≥3, SAINT score ≥0.8)
[1] = target: SREB1-BioID (human SREB1/GPR27 fused to 3×(GGGGS)-linker, BioID2 and HA tag) (human) (UniProt Q9NS67)
[2] = target: T1, CMKLR1-BioID (human CMKLR1, chemerin receptor, fused to 3×(GGGGS)-linker, BioID2 and HA tag) (human) (UniProt Q99788)
T1 sequence: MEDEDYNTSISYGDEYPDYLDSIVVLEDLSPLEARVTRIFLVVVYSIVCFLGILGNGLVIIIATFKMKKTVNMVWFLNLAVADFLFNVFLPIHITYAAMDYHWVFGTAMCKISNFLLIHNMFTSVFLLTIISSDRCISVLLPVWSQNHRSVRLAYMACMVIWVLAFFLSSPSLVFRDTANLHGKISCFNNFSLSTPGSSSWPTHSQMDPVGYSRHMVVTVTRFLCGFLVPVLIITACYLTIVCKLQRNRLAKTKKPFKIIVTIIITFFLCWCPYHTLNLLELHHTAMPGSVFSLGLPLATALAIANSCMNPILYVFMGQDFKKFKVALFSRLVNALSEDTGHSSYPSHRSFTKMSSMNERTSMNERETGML

[3] = target: SREB3-BioID (human SREB3/GPR173 fused to 3×(GGGGS)-linker, BioID2 and HA tag) (human) (UniProt Q9NS66)
[4] = target: SREB2-BioID (human SREB2/GPR85 fused to 3×(GGGGS)-linker, BioID2 and HA tag) (human) (UniProt P60893)

| Substance | binding [1] | binding [2] | binding [3] | binding [4] |
| --- | --- | --- | --- | --- |
| EPB41L2 (endogenous, biotinylated in HEK293 cells) (from UniProt O43491 1-1005) | binds | binds | binds | binds |
| EPB41L3 (endogenous, biotinylated in HEK293 cells) (from UniProt Q9Y2J2 1-1087) |  | binds | binds | binds |
| Gα11 (endogenous, HEK293 cells) (from UniProt P29992 1-359) | no binding | binds | no binding | no binding |
| Gαi2 (endogenous, HEK293 cells) (from UniProt P04899 1-355) | no binding | binds | no binding | no binding |
| Gαs (endogenous, HEK293 cells) (from UniProt P63092 1-394) | no binding | binds | no binding | no binding |
| lipopolysaccharide-responsive and beige-like anchor protein (LRBA) (endogenous, biotinylated in HEK293 cells) (from UniProt P50851 1-2863) |  |  |  | binds |
| solute carrier family 3 member 2 protein (SLC3A2) (endogenous, biotinylated in HEK293 cells) (from UniProt P08195 1-529) | binds |  | binds |  |
